{"source": "PubChem BioAssay AID590", "about": "(National Center for Advancing Translational Sciences (NCATS), 2007)", "note": "Out of some 59,000 compounds screened, about 6,500 (11%) were called active. The inconclusive results got no clear call from the source; some entries with a clear call stand among them for comparison. Rule as the data show it: active = max dye-equivalent concentration above about 10 nM; inconclusive = mostly about 1.1 nM to 9.6 nM; inactive = weaker than that."}
{"assay": "qHTS Assay for Spectroscopic Profiling in A350 Spectral Region", "conditions": "Compound autofluorescence, 340/450 nm, Alexa 350 dye-equivalents; active compounds read high"}
{"smiles": "COc1cc(C)c(S(=O)(=O)N2CCOCC2)cc1C(C)C", "max dye-equivalent concentration": "active: 32 nM"}
{"smiles": "Clc1ccc(OCc2nn3c(C4CCCCC4)nnc3s2)c(Cl)c1", "max dye-equivalent concentration": "inconclusive: 5.6 nM"}
{"smiles": "Nc1ccc2c(c1)N1CCN=C1S2", "max dye-equivalent concentration": "inactive"}
{"smiles": "O=C(c1n[nH]c2c1CCCC2)n1ccnc1", "max dye-equivalent concentration": "inactive"}
{"smiles": "COc1ccccc1NC(=O)c1cc(Cl)ccc1NC(=O)c1ccco1", "max dye-equivalent concentration": "active: 37 nM"}
{"smiles": "COc1ccc(-c2coc3cc(O)cc(O)c3c2=O)cc1", "max dye-equivalent concentration": "inactive"}
{"smiles": "O=C(OCc1cc(=O)n2cc(Br)ccc2n1)C1COc2ccccc2O1", "note": "(stereo not given)", "max dye-equivalent concentration": "inconclusive: 6.3 nM"}
{"smiles": "Cc1nc2nc(Cc3ccccc3)nn2c(C)c1Cl", "max dye-equivalent concentration": "inactive"}
{"smiles": "CC(C)COC(=O)N1CCCC1C(=O)Nc1nccs1", "note": "(stereo not given)", "max dye-equivalent concentration": "inconclusive: 1.1 nM"}
{"smiles": "CCOC(=O)CSc1nc2cc(C)cc(C)c2cc1C#N", "max dye-equivalent concentration": "inconclusive: 9.9 nM"}
{"smiles": "CCOC(=O)c1c(CN2CCN(C)CC2)oc2ccc(OC)cc12", "max dye-equivalent concentration": "inactive"}
{"smiles": "COc1ccc(-n2c(SCC(N)=O)nc3sc4c(c3c2=O)CCN(C)C4)cc1", "max dye-equivalent concentration": "inconclusive: 8.9 nM"}
{"smiles": "Cc1c(C#N)c2ccccc2n1CC(=O)NCc1cccnc1", "max dye-equivalent concentration": "inconclusive: 1.1 nM"}
{"smiles": "CS(=O)(=O)N1CCN(c2ccccc2NC(=O)c2ccc(Cl)cc2)CC1", "max dye-equivalent concentration": "inconclusive: 1.5 nM"}
{"smiles": "C[C@H](NC(=O)/C(C#N)=C/c1ccc(O)c(O)c1)c1ccccc1", "max dye-equivalent concentration": "inconclusive: 5.6 nM", "outcome": "inactive"}
{"smiles": "CC(C)c1cc(NC(=O)CSc2nnc(-c3ccccc3F)n2C)on1", "max dye-equivalent concentration": "inconclusive: 2.4 nM"}
{"smiles": "O=C1CC(c2ccccc2)C(=O)N1c1cccc(O)c1", "note": "(stereo not given)", "max dye-equivalent concentration": "inactive"}
{"smiles": "Cc1cccc(N2CCN(C(=O)C3CCN(S(=O)(=O)c4cccc5nsnc45)CC3)CC2C)c1", "note": "(stereo not given)", "max dye-equivalent concentration": "active: 25 nM"}
{"smiles": "COc1ccc(S(=O)(=O)N2CCCC(C(=O)NCc3ccncc3)C2)cc1", "note": "(stereo not given)", "max dye-equivalent concentration": "inactive"}
{"smiles": "COc1ccccc1C1SCCN1S(C)(=O)=O", "note": "(stereo not given)", "max dye-equivalent concentration": "inconclusive: 1.3 nM"}
{"smiles": "N#Cc1cccc(NC(=O)N2CCC3(CC2)CCN(C(=O)c2cnccn2)CC3)c1", "max dye-equivalent concentration": "inactive"}
{"smiles": "COc1ccccc1C(=O)n1nc(-c2ccccc2)nc1NCc1ccco1", "max dye-equivalent concentration": "inactive"}
{"smiles": "Cc1cccc2c(=O)cc(C)n(CC(=O)N3CCCCC3)c12", "max dye-equivalent concentration": "inconclusive: 1.2 nM"}
{"smiles": "CCCCn1c(=O)[nH]c(=O)c2c1nc(-c1ccncc1)n2CCOC", "max dye-equivalent concentration": "active: 15 nM"}
{"smiles": "COc1ccc(-c2csc3c2[N+]2=CCC=C2C3=O)cc1", "max dye-equivalent concentration": "inactive"}
{"smiles": "Cc1ccc(Cc2c(C)nc3c(C(=O)O)cnn3c2C)cc1", "max dye-equivalent concentration": "inconclusive: 6.3 nM"}
{"smiles": "O=C(O)C1CSC(c2ccncc2)N1", "note": "(stereo not given)", "max dye-equivalent concentration": "inconclusive: 3.1 nM"}
{"smiles": "COc1ccc(C2(CCN)CC(C)N(C)CC2C)cc1", "note": "(stereo not given)", "max dye-equivalent concentration": "inconclusive: 5.1 nM"}
{"smiles": "CCn1cc(C(=O)NC2CCCCCC2)c2cc(OC)c(OC)cc2c1=O", "max dye-equivalent concentration": "inconclusive: 3.6 nM"}
{"smiles": "CN(C)CCCN1C(=O)c2oc3ccccc3c(=O)c2C1c1cccs1", "note": "(stereo not given)", "max dye-equivalent concentration": "active: 30 nM"}
{"smiles": "CSc1nc2ccccc2n1CC(=O)N1CCCCC1", "max dye-equivalent concentration": "inconclusive: 1.8 nM"}
{"smiles": "O=C(c1cnn2c(C(F)F)cc(-c3ccccc3)nc12)N1CCN2CCCC2C1", "note": "(stereo not given)", "max dye-equivalent concentration": "active: 28 nM"}
{"smiles": "COc1cc(C(=O)NCc2ccc3c(c2)OCO3)ccc1OCc1c(C)noc1C", "max dye-equivalent concentration": "inactive"}
{"smiles": "CCCC(=O)Nc1cnc(NC(=O)c2cccc(F)c2)cc1C", "max dye-equivalent concentration": "inactive"}
{"smiles": "COc1cc(C2C(C#N)=C(C)NC3=C2C(=O)CC(C)(C)C3)cc(OC)c1O", "note": "(stereo not given)", "max dye-equivalent concentration": "inconclusive: 6.5 nM"}
{"smiles": "Cc1onc(-c2ccccc2Cl)c1C(=O)Nc1ccc(-n2nncc2C(C)(C)C)cc1", "max dye-equivalent concentration": "inconclusive: 1.8 nM"}
{"smiles": "CCCCN(CCCC)Cc1ccc(N)cc1", "max dye-equivalent concentration": "inconclusive: 1.3 nM"}
{"smiles": "C=CCn1c(SCC(=O)Nc2c(C)cccc2C)nnc1-c1ccncc1", "max dye-equivalent concentration": "inconclusive: 1.3 nM"}
{"smiles": "O=C(/C=N/O)NCCCn1ccnc1", "max dye-equivalent concentration": "inactive"}
{"smiles": "O=C(CSc1nnc(Nc2ccccc2)s1)NCc1ccco1", "max dye-equivalent concentration": "inconclusive: 1.8 nM"}
{"smiles": "Cc1nc2cnc(N3CCOCC3)nc2n(CCc2ccccc2)c1=O", "max dye-equivalent concentration": "active: 13 nM"}
{"smiles": "C#CCSC1=C(C#N)C(c2cccs2)C(C(=O)OCC)=C(C)N1", "note": "(stereo not given)", "max dye-equivalent concentration": "inconclusive: 2.2 nM"}
{"smiles": "COCCNc1oc(-c2ccc(C)cc2)nc1C#N", "max dye-equivalent concentration": "inconclusive: 7.4 nM"}
{"smiles": "CCOc1ccccc1NC(=O)N1C2CCCC1CC(NC(=O)C1CC1)C2", "note": "(stereo not given)", "max dye-equivalent concentration": "inconclusive: 1.1 nM"}
{"smiles": "COCCn1c(=O)c(-c2ccc(Cl)cc2)nc2cnc(Oc3cccc(Cl)c3)nc21", "max dye-equivalent concentration": "inconclusive: 4.7 nM"}
{"smiles": "CCNc1ncc2nc(-c3ccc(OC)cc3)c(=O)n(CCOC)c2n1", "max dye-equivalent concentration": "active: 19 nM"}
{"smiles": "O=P1(c2ccccc2)C=Cn2c1cc1c2CCCC1", "note": "(stereo not given)", "max dye-equivalent concentration": "active: 21 nM"}
{"smiles": "NC(=O)CN1C(=O)C2CCCCN2C(=O)c2ccccc21", "note": "(stereo not given)", "max dye-equivalent concentration": "active: 36 nM"}
{"smiles": "CN(c1ccc(OCC(=O)N2CCCCC2)cc1)S(=O)(=O)c1cccs1", "max dye-equivalent concentration": "inconclusive: 2.4 nM"}
{"smiles": "COc1ccc2nc3oc(C(=O)NCc4cccs4)cc3cc2c1", "max dye-equivalent concentration": "active: 260 nM"}
{"smiles": "CCOc1ccc(NC(=O)CSc2nc3cccnc3n2CC)cc1", "max dye-equivalent concentration": "inconclusive: 1.3 nM"}
{"smiles": "CCCC1C2CN(C(C)C)CC=C2C(C#N)=C(N)C1(C#N)C#N", "note": "(stereo not given)", "max dye-equivalent concentration": "active: 920 nM"}
{"smiles": "COc1ccc(Br)cc1C(=O)Nc1ccc(O)cc1", "max dye-equivalent concentration": "active: 27 nM"}
{"smiles": "COc1cccc(S(=O)(=O)Nc2ccc(C(=O)NCc3ccco3)cc2)c1", "max dye-equivalent concentration": "inactive"}
{"smiles": "COC(=O)c1c(-n2cnnn2)sc(C)c1C", "max dye-equivalent concentration": "inconclusive: 1.6 nM"}
{"smiles": "CC(C)N=C1SCC(C)(/C=N/O)S1", "note": "(stereo not given)", "max dye-equivalent concentration": "inconclusive: 1.1 nM"}
{"smiles": "CCOC(=O)c1ccc(N=c2sc(C(=O)OC)cc(=O)n2C2CC2)cc1", "max dye-equivalent concentration": "inactive"}
{"smiles": "CC1(C)CC(=O)C2=C(C1)Oc1ncn(CCO)c(=N)c1C2c1ccccc1", "note": "(stereo not given)", "max dye-equivalent concentration": "inconclusive: 1.8 nM"}
{"smiles": "O=C(NC1CCCCC1)Sc1ccc(Cl)cc1", "max dye-equivalent concentration": "inactive"}
{"smiles": "CCCc1cc2c(=O)c(-c3ccccn3)c(C)oc2cc1O", "max dye-equivalent concentration": "active: 110 nM"}
{"smiles": "Cc1cc(NC(=O)c2cccc(S(=O)(=O)N3CCCC3)c2)no1", "max dye-equivalent concentration": "inconclusive: 1.1 nM"}
{"smiles": "O=C1CC(O)(C(F)F)Oc2ccc3ccccc3c21", "note": "(stereo not given)", "max dye-equivalent concentration": "active: 1700 nM"}
{"smiles": "CCN(C(=O)c1cc2cc(OC)ccc2oc1=O)c1ccccc1", "max dye-equivalent concentration": "active: 12 nM"}
{"smiles": "CCOc1ccc(OCC)c(NC(=O)CSc2nc3c(c(=O)n(C)c(=O)n3C)n2C(C)C)c1", "max dye-equivalent concentration": "inactive"}
{"smiles": "Cc1ccc(S(=O)(=O)C(C#N)c2nc3ccccc3nc2N2CC(C)OC(C)C2)cc1C", "note": "(stereo not given)", "max dye-equivalent concentration": "inconclusive: 2.2 nM"}
{"smiles": "Cc1ccc(-n2ncc3c2ncn2c(-c4ccncc4)nnc32)cc1", "max dye-equivalent concentration": "inconclusive: 1.9 nM"}
{"smiles": "N#CNC(N)=Nc1cccc(Cl)c1", "max dye-equivalent concentration": "inconclusive: 1.4 nM"}
{"smiles": "COc1ccc(NC(=O)c2ccco2)cc1NC(=O)c1cccs1", "max dye-equivalent concentration": "active: 13 nM"}
{"smiles": "CC(C)CCn1c(N2CCN(Cc3ccccc3)CC2)nc2c1c(=O)[nH]c(=O)n2C", "max dye-equivalent concentration": "active: 25 nM"}
{"smiles": "CC(=O)Nc1ccc(N/C=C/C(=O)C(C)(C)C)cc1", "max dye-equivalent concentration": "active: 22 nM"}
{"smiles": "Cc1occc1-c1nnc(SCC(=O)c2ccc(Cl)cc2)n1C", "max dye-equivalent concentration": "inconclusive: 1.1 nM"}
{"smiles": "CCN1CCc2nc(SCC(=O)Nc3ccc(OC)cc3)c(C#N)cc2C1", "max dye-equivalent concentration": "inconclusive: 2.1 nM"}
{"smiles": "CCCN1C2CCCC1CC(NC(=O)Nc1cccc(C(C)=O)c1)C2", "note": "(stereo not given)", "max dye-equivalent concentration": "inconclusive: 1.7 nM"}
{"smiles": "CC1CN(Cc2cc(=O)n3ccsc3n2)CC(C)O1", "note": "(stereo not given)", "max dye-equivalent concentration": "active: 20 nM"}
{"smiles": "CCN(CC(=O)NCc1ccc(F)cc1)C(=O)C1CCN(C(=O)Nc2ccccc2)CC1", "max dye-equivalent concentration": "inconclusive: 1.2 nM"}
{"smiles": "c1ccc2c(c1)oc1c(NCCCn3ccnc3)ncnc12", "max dye-equivalent concentration": "inconclusive: 9.1 nM"}
{"smiles": "COc1ccc(C)cc1S(=O)(=O)N1CCN(c2cccc(C(F)(F)F)c2)CC1", "max dye-equivalent concentration": "inconclusive: 1.3 nM"}
{"smiles": "O=C(O)c1ccccc1S(=O)(=O)NCC(O)COC1CCCCC1", "note": "(stereo not given)", "max dye-equivalent concentration": "inconclusive: 1.2 nM"}
{"smiles": "COc1cc2c(cc1OC)CN(Cc1nc3ccsc3c(=O)[nH]1)CC2", "max dye-equivalent concentration": "active: 40 nM"}
{"smiles": "CC1(C)CC(=O)C=C(N=CC2=C(O)CC(C)(C)CC2=O)C1", "max dye-equivalent concentration": "active: 13 nM"}
{"smiles": "CC(=O)Oc1cc(OC(C)=O)c2c(=O)cc(-c3ccc(OC(C)=O)c(OC(C)=O)c3)oc2c1", "max dye-equivalent concentration": "active: 14 nM"}
{"smiles": "COC(=O)c1[nH]c2cccc(OC)c2c1NC(=O)CN1CCOCC1", "max dye-equivalent concentration": "active: 18 nM"}
{"smiles": "COc1cc2nc(N3CCN(C(=O)[C@H]4CCCO4)CC3)nc(N)c2cc1OC", "max dye-equivalent concentration": "active: 870 nM"}
{"smiles": "O=C(NCCc1ccccn1)c1ccc(COc2ccccc2)o1", "max dye-equivalent concentration": "inactive"}
{"smiles": "CC1(C)CC(=O)C2=C(C1)OC(N)=C(C#N)C2C1C=CCCC1", "note": "(stereo not given)", "max dye-equivalent concentration": "inconclusive: 1.4 nM"}
{"smiles": "Cc1cc(C(=O)OCC(=O)NCCc2ccccc2)c(C)o1", "max dye-equivalent concentration": "inconclusive: 1.8 nM"}
{"smiles": "COCCNC(=O)c1c(N)n(CCC2=CCCCC2)c2nc3ccccc3nc12", "max dye-equivalent concentration": "active: 480 nM"}
{"smiles": "CCOc1cc(NC(=O)c2ccco2)c(OCC)cc1NC(=O)CCc1ccc(OC)cc1", "max dye-equivalent concentration": "active: 100 nM"}
{"smiles": "CC(C)Oc1cc2oc(=O)c3c(c2cc1Cl)CCC3", "max dye-equivalent concentration": "active: 170 nM"}
{"smiles": "c1ccc(Nc2cc(-c3ccoc3)ncn2)cc1", "max dye-equivalent concentration": "inconclusive: 3.4 nM"}
{"smiles": "COC(=O)[C@@H]1[C@@H]2C[C@H]3c4[nH]c5ccccc5c4CCN3C[C@@H]2CC[C@@H]1OS(=O)(=O)O", "max dye-equivalent concentration": "inconclusive: 7.8 nM"}
{"smiles": "CCCn1nnc(NC(=O)COc2cc(C)ccc2C(C)C)n1", "max dye-equivalent concentration": "inconclusive: 3 nM"}
{"smiles": "CN1CCN(c2ncc3nc(-c4ccc(Cl)cc4)c(=O)n(CCC#N)c3n2)CC1", "max dye-equivalent concentration": "active: 120 nM"}
{"smiles": "Nc1c(C(=O)NC2CCCCC2)nsc1C(=O)OCC(=O)NC1CCCCC1", "max dye-equivalent concentration": "active: 130 nM"}
